Measurements: paper doi:10.1101/2022.11.06.515368
No constants are given. Whether binding was seen depends on the method and setting. Binding seen in cells or lysates may run through a third protein. Some binding calls cover weakened binding; strength is not graded here.

Sequences of proteins named here, by UniProt entry; tags and fusion partners are left off.
UniProt Q96EZ8: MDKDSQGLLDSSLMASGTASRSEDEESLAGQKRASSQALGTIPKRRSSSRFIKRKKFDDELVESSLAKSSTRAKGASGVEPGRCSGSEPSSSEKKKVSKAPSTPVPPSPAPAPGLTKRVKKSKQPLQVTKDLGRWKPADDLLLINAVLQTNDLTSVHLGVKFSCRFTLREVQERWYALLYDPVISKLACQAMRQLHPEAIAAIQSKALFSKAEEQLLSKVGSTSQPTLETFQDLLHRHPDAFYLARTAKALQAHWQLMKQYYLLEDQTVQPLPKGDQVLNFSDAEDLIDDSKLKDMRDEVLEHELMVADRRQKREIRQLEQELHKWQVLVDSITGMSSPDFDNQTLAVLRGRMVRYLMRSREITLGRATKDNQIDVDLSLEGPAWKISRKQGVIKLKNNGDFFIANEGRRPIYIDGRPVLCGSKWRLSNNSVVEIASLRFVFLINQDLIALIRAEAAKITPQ

Target: FLAG-tagged MCRS1 (UniProt Q96EZ8)
Test: co-IP

B1: CCDC85B (protein, UniProt Q15834 1-202)
chain: MEAEAGGLEELTDEEMAALGKEELVRRLRREEAARLAALVQRGRLMQEVNRQLQGHLGEIRELKQLNRRLQAENRELRDLCCFLDSERQRGRRAARQWQLFGTQASRAVREDLGGCWQKLAELEGRQEELLRENLALKELCLALGEEWGPRGGPSGAGGSGAGPAPELALPPCGPRDLGDGSSSTGSVGSPDQLPLACSPDD
For B1, the binding was “binds”.
